Values quoted from earlier work in US20060080073A1, “Three-dimensional structural activity correlation method” (priority 2002, published 2006).
At least one compound was matched to its structure with a doubt left.

Molecular target: T1, human corticosteroid-binding globulin (Homo sapiens, UniProt P08185)
T1 sequence (P08185 23-405): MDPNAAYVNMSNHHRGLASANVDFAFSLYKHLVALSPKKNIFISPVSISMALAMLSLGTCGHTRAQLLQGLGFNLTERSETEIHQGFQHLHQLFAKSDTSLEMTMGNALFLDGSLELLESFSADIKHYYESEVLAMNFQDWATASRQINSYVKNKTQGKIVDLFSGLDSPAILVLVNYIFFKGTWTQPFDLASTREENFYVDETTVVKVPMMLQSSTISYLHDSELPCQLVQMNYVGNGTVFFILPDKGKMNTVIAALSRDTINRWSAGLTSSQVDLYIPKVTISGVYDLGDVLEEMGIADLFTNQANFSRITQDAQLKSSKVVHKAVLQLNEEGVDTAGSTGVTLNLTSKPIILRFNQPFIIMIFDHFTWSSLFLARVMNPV
Conditions: steroid derivatives disclosed by Cramer et al. (CoMFA benchmark); values given as negative logarithmic numbers, no unit

In the case of `C[C@]12CC[C@@H]3c4ccc(O)cc4CC[C@H]3[C@@H]1CCC2=O` [estrone], the “Binding affinity to human corticosteroid-binding globulins (CBG)” value is listed as −5.000.

In the case of `C[C@]12CC[C@@H]3c4ccc(O)cc4CC[C@H]3[C@@H]1CC[C@@H]2O` [estradiol], the “Binding affinity to human corticosteroid-binding globulins (CBG)” value is listed as −5.000.
